Test results from PubChem BioAssay AID1347131 (National Center for Advancing Translational Sciences (NCATS), 2019).
Out of some 410,000 compounds screened, about 2,000 (0.49%) were called active. This list was built around the results that the source calls inconclusive (neither active nor inactive); the mix of calls is not that of the screen. The call rests on the fitted dose curve; tested in HEK293 reporter line. Potencies of inconclusive entries are doubtful fits and often do not repeat.

assay: qHTS Assay for Foot and Mouth Disease Virus Antivirals: Primary Screen against the MLPCN compound library; conditions: FMDV antiviral cell-based qHTS; activity, negative = inhibition: at 57.9 µM (top of the series); further: nearly all actives have a fitted effect of over 55% in size
Potency means the concentration at half of the fitted maximal effect.

SMILES | activity, negative = inhibition | Potency
CCc1nnc(NC(=O)CSc2nc(-c3ccccc3)cc(-c3ccc(F)cc3)c2C#N)s1 | inactive: 135% | –
COc1ccccc1/C=C/C(=O)OCC(=O)Nc1ccc(Cl)cn1 | – | inconclusive: 15.8 µM [inhibitor, single point]
CC1(C)Cc2c(c(-c3ccco3)nc3sc4c(NCCO)ncnc4c23)CO1 | – | inconclusive: 10 µM [inhibitor, partial curve, poor fit]
NC1=NC[C@@H](CC2CCCCC2)N1CCc1cc(C(F)(F)F)cc(C(F)(F)F)c1 | – | inconclusive: 35.5 µM [inhibitor, partial curve, poor fit]
O=C(CCl)Nc1ccc(S(=O)(=O)NC2=NCCCCC2)cc1 | – | inconclusive: 31.6 µM [inhibitor, partial curve, poor fit]
O=C1/C(=C/c2ccc(O)c([N+](=O)[O-])c2)SC(=S)N1Cc1ccccc1 | inactive: -35% | –
COc1ccc(-c2nc(CS(=O)CC(=O)NCc3ccccn3)c(C)o2)cc1 (stereo not drawn) | inconclusive: -31.4% [inhibitor] | –
CCc1ccc(-n2c(=O)c3c4c(sc3n(CC(=O)N3CCCCC3CC)c2=O)CCC4)cc1 (stereo not drawn) | inactive: -31.9% | –
Cc1nc(-c2ccccc2)nc2[nH]c(-c3ccccc3)cc(=O)c12 | – | inconclusive: 7.94 µM [inhibitor, partial curve]
O=C(Nc1ccccc1)C1=C(c2ccccc2)S(=O)(=O)CCS1(=O)=O | – | inconclusive: 14.1 µM [inhibitor, partial curve, poor fit]
CC(C)(C)OC(=O)N1CCC[C@H]1c1nnc(SCc2ccc(Cl)cc2Cl)o1 | – | inconclusive: 39.8 µM [inhibitor, single point]
COc1cc(NC(=O)c2csc(N)n2)cc(C(=O)Nc2cccc(C(F)(F)F)c2)c1 | – | inconclusive: 25.1 µM [inhibitor, partial curve, poor fit]
CCN(CC(=O)Nc1cc(Cl)ccc1C)C(=O)Cc1sc(C)nc1-c1ccc(F)cc1 | – | inconclusive: 25.1 µM [inhibitor, partial curve, poor fit]
COc1ccc(NC(=O)CSCC(=O)Nc2ccccc2N2CCCCC2)cc1 | – | inconclusive: 15.8 µM [inhibitor, partial curve]
O=C(Nc1ccc([N+](=O)[O-])cc1)Nc1ccc(OC(F)F)c(Cl)c1 | – | inconclusive: 25.1 µM [inhibitor, partial curve, poor fit]
Cc1ccc(-n2c(Cc3ccccc3)nnc2SCc2nc(-c3cccs3)no2)cc1C | – | inconclusive: 20 µM [inhibitor, partial curve, poor fit]
CCOc1ccc(N(Cc2ccccc2)C(=O)c2nc(S(C)(=O)=O)ncc2Cl)cc1 | – | inconclusive: 15.8 µM [inhibitor, partial curve, poor fit]
O=C(CCCCCn1c(=O)[nH]c2ccccc2c1=O)N1CCN(Cc2ccc3c(c2)OCO3)CC1 | – | active: 20 µM
O=C(CC(=O)c1ccccn1)c1ccccc1 | – | inconclusive: 15.8 µM [inhibitor, single point]
CCOC(=O)C1(CCCc2ccccc2)CCN(S(C)(=O)=O)CC1 | – | inconclusive: 10 µM [inhibitor, partial curve]

SMILES | activity, negative = inhibition | Potency
CC(C)(C)C(=O)Oc1cccc(Nc2ncnc3ccccc23)c1 | – | inconclusive: 28.2 µM [inhibitor, partial curve, poor fit]
Cc1nc(Nc2cnc(/C=C/c3cc(C(=O)Nc4cccc(C(F)(F)F)c4)ccc3C)cn2)cc(N2CCNCC2)n1 | inconclusive: -36.2% [inhibitor] | –
CCOC(=O)N1CCN(CC(O)COC2CC(C)CCC2C(C)C)CC1 (stereo not drawn) | – | inconclusive: 31.6 µM [inhibitor, partial curve, poor fit]
COc1ccc2c(c1)c1c(c(=O)n(CCc3ccccc3)c(=O)n1Cc1cccc(Cl)c1)n2C | – | inconclusive: 10 µM [inhibitor, partial curve]
CCCNc1nc2c(c(=O)n(C)c(=O)n2C)n1CCc1ccccc1 | – | inconclusive: 14.1 µM [inhibitor, partial curve, poor fit]
CCCCc1c(-c2cccc(F)c2)ncn1CCc1ccccc1OC | – | inconclusive: 25.1 µM [inhibitor, partial curve, poor fit]
O=C(Nc1ccc(Br)cc1F)c1ccc2c(c1)OCCO2 | – | inconclusive: 17.8 µM [inhibitor, single point]
CCc1ccccc1NC(=O)CN(C)C(=O)Cn1ncc(Cl)c(Cl)c1=O | – | inconclusive: 35.5 µM [inhibitor, partial curve, poor fit]
Cc1nc(SCc2nc3ccccc3[nH]2)c2oc3ccc(Br)cc3c2n1 | – | inconclusive: 35.5 µM [inhibitor, partial curve, poor fit]
CCCCOc1ccc(CNC(=O)c2cccc(NC(=O)N3CCSc4ncccc43)c2)cc1 | – | inconclusive: 22.4 µM [inhibitor, partial curve, poor fit]
CCC(C)(C)n1nnnc1C(C(C)C)N(Cc1cccnc1)Cc1ccco1 (stereo not drawn) | – | inconclusive: 8.91 µM [inhibitor, partial curve]
COc1cccc(NC(=O)Cn2cc(C=O)c3ccccc32)c1 | – | inconclusive: 14.1 µM [inhibitor, partial curve, poor fit]
Cc1nc(N/N=C/c2ccc(Br)cc2)cc(N2CCOCC2)n1 | – | inconclusive: 31.6 µM [inhibitor, partial curve, poor fit]
O=c1cc(CN2CCN(S(=O)(=O)c3ccc4c(c3)OCCO4)CC2)c2ccc(O)cc2o1 | – | inconclusive: 31.6 µM [inhibitor, single point]
CCCOc1ccc(F)cc1-c1cc(C(=O)Nc2ccc(C)c(NS(C)(=O)=O)c2)[nH]n1 | – | inconclusive: 35.5 µM [inhibitor, single point]
CC(C)(C)c1ccc(-c2cc(-c3ccccc3O)[nH]n2)cc1 | – | inconclusive: 20 µM [inhibitor, single point]
CCCC(=O)N1CCCC(c2cc(C(=O)Nc3ccccc3)no2)C1 (stereo not drawn) | – | inconclusive: 20 µM [inhibitor, partial curve, poor fit]
Cc1cc(N2CCCC2)c(F)cc1/C=C\[N+](=O)[O-] | – | inconclusive: 22.4 µM [inhibitor, partial curve, poor fit]
CC(C)(C)NC(=O)c1cccc(NC(=O)c2ccc3c(c2)C(=O)N(C(C)(C)C)C3=O)c1 | – | inconclusive: 25.1 µM [inhibitor, partial curve, poor fit]
CC(C)c1ccc(/C=N/NC(=O)c2cccc(Cl)c2)cc1 | – | inconclusive: 39.8 µM [inhibitor, single point]

SMILES | activity, negative = inhibition | Potency
COc1ccc(OCC(=O)Nc2nccs2)cc1 | – | active: 15.8 µM
O=C(Nc1cccc(Cl)c1)c1ccc2c(=O)n3c(nc2c1)CCCCC3 | – | inconclusive: 15.8 µM [inhibitor, single point]
Cc1nc2c(OCc3ccc(C#N)cc3)cccn2c1N(C)C(=O)CCC1CCCC1 | – | inconclusive: 22.4 µM [inhibitor, partial curve, poor fit]
COc1cc(C=C2CCCC(=Cc3ccc(OCC4CO4)c(OC)c3)C2=O)ccc1OCC1CO1 (stereo not drawn) | – | inconclusive: 11.2 µM [inhibitor, partial curve, poor fit]
COc1cccc(NC(=O)COC(=O)c2c3c(nc4ccccc24)CCC(C)C3)c1 (stereo not drawn) | – | inconclusive: 31.6 µM [inhibitor, partial curve, poor fit]
C/C(=N\OCc1cccc(C(=O)O)c1)c1ccc(Cl)cc1 | – | inconclusive: 10 µM [inhibitor, partial curve, poor fit]
O=C(Cn1ncc(Cl)c(Cl)c1=O)NC1CCCCC1 | – | inconclusive: 35.5 µM [inhibitor, partial curve, poor fit]
COc1ccc(NC(=O)c2cccc(Oc3ccc([N+](=O)[O-])cc3Cl)c2)cc1 | – | inconclusive: 7.08 µM [inhibitor, full curve]
COc1cc(/C=C(\C#N)c2ccccn2)ccc1OCC(=O)Nc1cccc(C(F)(F)F)c1 | inactive: -29% | –
CCOc1ccc(CCNC(=O)c2cccc(S(=O)(=O)N3CCCCC3)c2)cc1OCC | – | inconclusive: 28.2 µM [inhibitor, partial curve, poor fit]
CC(=O)c1ccc(NC(=O)c2ccc(CSc3ccccc3)o2)cc1 | – | inconclusive: 28.2 µM [inhibitor, partial curve, poor fit]
COc1ccc(/C=N/NC(=O)c2ccoc2C)cc1COc1ccc(Cl)cc1 | – | inconclusive: 22.4 µM [inhibitor, partial curve, poor fit]
CC(C)(C)OC(=O)NCc1ccc(CNC(=O)c2nc[nH]c2C(=O)N2CCc3ccccc3C2)cc1 | – | inconclusive: 39.8 µM [inhibitor, single point]
O=C(/C=C/Nc1ccc(F)cc1F)c1cccs1 | – | inconclusive: 20 µM [inhibitor, partial curve, poor fit]
O=C(COc1ccc(/C=N/NC(=O)c2cc3ccccc3o2)cc1Cl)Nc1ccccc1 | – | inconclusive: 39.8 µM [inhibitor, single point]
Cc1nnc(NC(=O)c2nc(S(=O)(=O)Cc3ccccc3C)ncc2Cl)s1 | – | inconclusive: 25.1 µM [inhibitor, partial curve, poor fit]
COC(=O)/C=C1/N/C(=N\c2nc(C)cc(C)n2)N(c2cccc(C)c2)C1=O | – | inconclusive: 28.2 µM [inhibitor, partial curve, poor fit]
O=C1OCC(c2ccccc2)=C1c1ccc(S(=O)(=O)N2CCOCC2)s1 | – | inconclusive: 8.91 µM [inhibitor, partial curve]

As a short view, 2 of the compounds above:
SMILES | activity, negative = inhibition | Potency
Cc1nc2c(OCc3ccc(C#N)cc3)cccn2c1N(C)C(=O)CCC1CCCC1 | – | inconclusive: 22.4 µM [inhibitor, partial curve, poor fit]
COc1cc(C=C2CCCC(=Cc3ccc(OCC4CO4)c(OC)c3)C2=O)ccc1OCC1CO1 (stereo not drawn) | – | inconclusive: 11.2 µM [inhibitor, partial curve, poor fit]
